Assay: Operation of EDI device with slime inhibitor added to the water to be treated

Question: Which “Specific resistance of treated water at CT value = 100 mg · h/L as Cl2” value (after the start of operation, CT value reached 100 mg·h/L as Cl2, Example 1: 0.75 mg/L as Cl2) does the source give for `OCl` [Sodium hypochlorite, sodium hypochlorite] here?
Answer: 3 MΩ · cm

Question: And the “Specific resistance of treated water at CT value = 0 mg · h/L as Cl2” value (before the start of operation, EDI device of FIG. 5, RO-treated well water)?
Answer: 18 MΩ · cm

Question: What about the “Tendency of change in specific resistance of the treated water” value (during long operation of the EDI device) of the same molecule?
Answer: suddenly decreased early

From patent publication US20250346512A1, “WATER TREATMENT METHOD, WATER TREATMENT APPARATUS, SLIME INHIBITOR, AND CLEANING METHOD” (ORGANO CORPORATION, priority 2022, published 2025)
